From patent publication US20210221847A1
No constants are given. Whether binding was seen depends on the method and setting. Some entries that bind do so weakly or less than the wild type.

Amino acid sequences for entries named in this document (tags omitted). Residues count along the entry.
UniProt P06733, residues 2-434: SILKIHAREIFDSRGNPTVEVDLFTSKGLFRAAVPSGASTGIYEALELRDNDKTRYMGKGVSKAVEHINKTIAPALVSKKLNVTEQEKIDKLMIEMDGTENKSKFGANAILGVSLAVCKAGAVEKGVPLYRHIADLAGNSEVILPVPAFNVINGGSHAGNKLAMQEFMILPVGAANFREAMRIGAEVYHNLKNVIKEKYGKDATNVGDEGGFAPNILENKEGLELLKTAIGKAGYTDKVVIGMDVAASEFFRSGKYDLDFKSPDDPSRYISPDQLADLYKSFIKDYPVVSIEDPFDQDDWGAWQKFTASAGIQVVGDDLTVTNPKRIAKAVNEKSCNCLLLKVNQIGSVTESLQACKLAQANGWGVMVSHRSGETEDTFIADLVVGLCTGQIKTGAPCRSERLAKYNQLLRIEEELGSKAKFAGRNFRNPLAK

B1: apoB100 #1 (peptide)
peptide: AICKEQHLFLPF
B2: apoB100 #2 (peptide)
peptide: CKEQHLFLPFSY
B3: apoB100 #3 (peptide)
peptide: SYKNKYGMVAQV
B4: apoB100 #4 (peptide)
peptide: KNKYGMVAQVTQ
B5: apoB100 #5 (peptide)
peptide: TKKMGLAFESTK

target: ENO1 (α-enolase) (human (rheumatoid arthritis patient)) (UniProt P06733); assay: peptide micro array

binding, binds:
B1, B2, B3, B4, B5
